# Results taken from the supplement of paper PMC8616043.
# Counter-ions that a name gives are not always drawn. The list shows a part of the results. This data set is noisy: repeats of one test often differ as much as different tests do.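 Human U-2 OS cells stably expressing a GFP sensor with a nuclear import signal and classical export signal were transfected to produce PR50, a 50-repeat proline–arginine dipeptide from ALS/FTD gene C9ORF72. Nuclear-minus-cytoplasm GFP was scaled from DMSO (low) to PR-only (high), scored against plate test wells; strongly negative scores marked PR-reversing hits.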
# Tested on: U-2 OS NCT-C biosensor cells expressing PR50
# Test: Z-score of normalised NCT-C biosensor translocation index in PR50-expressing cells; higher = more nuclear biosensor (more disrupted nuclear export)
# Conditions: 3 µM; 24 h
row,SMILES,Z-score
1,CC(C)OC(=O)C(C)(C)Oc1ccc(C(=O)c2ccc(Cl)cc2)cc1 [Fenofibrate],inactive: 0.664
2,CCOC(=O)[C@@H](N)CCC(=O)N[C@@H](CSCc1ccccc1)C(=O)N[C@@H](C(=O)OCC)c1ccccc1 [Ezatiostat],inactive: 1.55
3,Cc1cc2c(s1)Nc1ccccc1N=C2N1CCN(C)CC1 [Olanzapine],inactive: -0.369
4,COc1cc2c(NC3CCN(C)CC3)nc(N3CCCN(C)CC3)nc2cc1OCCCN(C)C,active: -2.61
5,CC=CC1=C(C(=O)O)N2C(=O)[C@@H](NC(=O)[C@H](N)c3ccc(O)cc3)[C@H]2SC1 [Cefprozil],inactive: 0.449
6,NC(=O)CC[C@H](N)C(=O)O [L-Glutamine],inactive: -0.53
7,COC(=O)CCC(=O)CN [Methyl Aminolevulinate·HCl],inactive: 0.0351
8,CCCNC(=O)Nc1ccc(Oc2ncnc3cc(OC)c(OC)cc23)cc1Cl,inactive: -0.473
9,"O=C(O)c1cc(=O)c2c(Cl)cc(Cl)cc2[nH]1 [5,7-  Dichlorokynurenic acid]",inactive: -0.727
10,Cc1cn(-c2cc(NC(=O)c3ccc(C)c(Nc4nccc(-c5cccnc5)n4)c3)cc(C(F)(F)F)c2)cn1 [Nilotinib],inactive: -0.0218
11,CCCCN(CCCC)CC(O)c1cc(Cl)cc2c1-c1ccc(Cl)cc1/C2=C/c1ccc(Cl)cc1 (centres undefined) [Lumefantrine],inactive: -0.24
12,CC(C)(C)c1ccc(S(=O)(=O)/C=C/C#N)cc1,inactive: 2.66
13,O=c1[nH]c2cc(C(F)(F)F)ccc2n1-c1cc(C(F)(F)F)ccc1O,inactive: -0.579
14,COc1cc(C2Oc3cc([C@H]4Oc5cc(O)cc(O)c5C(=O)[C@@H]4O)ccc3OC2CO)ccc1O (some centres undefined) [Silymarin],inactive: 0.165
15,COc1cc(C2Oc3cc([C@H]4Oc5cc(O)cc(O)c5C(=O)[C@@H]4O)ccc3OC2CO)ccc1O (some centres undefined) [Silybine],inactive: 0.203
16,O=c1cc(-c2ccccc2)oc2cc(O)c(O)c(O)c12 [Baicalein],inactive: -0.494
17,N[C@@H](CCCC(=O)O)C(=O)O [L-2-aminoadipic acid],inactive: 0.426
18,O=c1[nH]c(=O)c2nc3ccccc3nc2[nH]1 [Alloxazine],inactive: 0.171
19,CC(=O)O[C@H]1C[C@@]2(C)[C@@H](C[C@@H](O)[C@H]3[C@@]4(C)CC[C@@H](O)[C@@H](C)[C@@H]4CC[C@@]32C)/C1=C(\CCC=C(C)C)C(=O)O [Fusidic acid sodium salt],inactive: -0.557
20,"CC(=O)N[C@@H](CS)C(=O)O [L-Cysteine, N- Acetyl-]",inactive: 0.798
21,CC(=O)N[C@@H](CS)C(=O)O [Acetylcysteine],inactive: 0.347
22,CC[C@H](C)C(=O)O[C@H]1C[C@@H](C)C=C2C=C[C@H](C)[C@H](CC[C@@H]3C[C@@H](O)CC(=O)O3)[C@H]21 [Lovastatin],inactive: 0.374
23,CCN(CC)CCOC(=O)c1ccc(N)cc1 [Procaine hydrochloride],inactive: -0.734

# Given bar-delimited: part of the list above.
row | SMILES | Z-score
21 | CC(=O)N[C@@H](CS)C(=O)O [Acetylcysteine] | inactive: 0.347
22 | CC[C@H](C)C(=O)O[C@H]1C[C@@H](C)C=C2C=C[C@H](C)[C@H](CC[C@@H]3C[C@@H](O)CC(=O)O3)[C@H]21 [Lovastatin] | inactive: 0.374

# (listing goes on)

row,SMILES,Z-score
1,N[C@H](C(=O)O)[C@@H]1CC(Cl)=NO1 [Acivicin],inactive: -0.59
2,C[C@H](Cn1cnc2c(N)ncnc21)OCP(=O)(O)O [Tenofovir],inactive: -0.36
3,CCCCNc1cc(C(=O)O)cc(S(N)(=O)=O)c1Oc1ccccc1 [Bumetanide],inactive: 0.785
4,OC(CCN1CCCCC1)(c1ccccc1)C1CCCCC1 (racemic) [DL-  Trihexyphenidyl hydrochloride],inactive: 0.599
5,CC(C)(C)c1ccc(C(=O)CCCN2CCC(OC(c3ccccc3)c3ccccc3)CC2)cc1 [Ebastine],inactive: 0.55
6,CC[C@H](NC(=O)c1c(O)c(-c2ccccc2)nc2ccccc12)c1ccccc1 [Talnetant],inactive: 2.67
7,NC(=O)OCC(COC(N)=O)c1ccccc1 [Felbamate],inactive: 0.551
8,"CCCCS(=N)(=O)CCC(N)C(=O)O (racemic) [DL-Buthionine- [S,R]-sulfoximine]",inactive: 3.28
9,COc1ccc(C[C@H](N)C(=O)N[C@H]2[C@@H](O)[C@H](n3cnc4c(N(C)C)ncnc43)O[C@@H]2CO)cc1 [Puromycin],inactive: 1.31
10,COCc1nc2c([nH]1)c(=O)n(C)c(=O)n2CC(C)C [8-Methoxymethyl-3 isobutyl-1-methylxanthine],inactive: -1.09
11,CC12CCc3occc3C1CCC13CC(=O)C(CCC12)C3 (centres undefined) [16-Oxocafestol],inactive: -0.491
12,CCCCCCCCCC[Si](C)(C)CCC(=O)NC(Cc1ccc(C)cc1)c1ccccc1 (centres undefined) [Sandoz 58-035],inactive: 0.586
13,Cc1c2c(c(O)c3c(O)cccc13)C(=O)O[C@@H]2[C@@H]1[C@H](O)C(=O)C(C(N)=O)=C(O)[C@H]1N(C)C [α-Apo-Oxytetracycline],inactive: -0.729
14,COC(=O)N[C@H](C(=O)N[C@@H](Cc1ccccc1)[C@@H](O)CN(Cc1ccc(-c2ccccn2)cc1)NC(=O)[C@@H](NC(=O)OC)C(C)(C)C)C(C)(C)C [Atazanavir],inactive: -0.404
15,COc1c(C)c2c(c(O)c1C/C=C(\C)CCC(=O)O)C(=O)OC2 [Mycophenolic acid],inactive: -0.412
16,COc1c(C)c2c(c(O)c1C/C=C(\C)CCC(=O)O)C(=O)OC2 [Mycophenolic Acid],inactive: 3.31
17,CCCCCNC(=N)N/N=C/c1c[nH]c2ccc(OC)cc12 [Tegaserod maleate],inactive: -0.703
18,O=C(NCCN1CCOCC1)c1ccc(Cl)cc1 [Moclobemide],inactive: -0.282
19,Cc1cc(Cl)ccc1OCCCC(=O)NO [Droxinostat],inactive: -1.59
20,Cc1ccc(-n2sc(=O)n(Cc3ccc(F)cc3)c2=O)cc1,inactive: 0.706
21,NCCNCCNCCN [Trientine Dihydrochloride],inactive: -0.215
22,CCCC(CCC)C(=O)O[C@H]1C[C@H]2CC[C@@H](C1)[N+]2(C)C [Anisotropine methyl bromide],inactive: 1.62
23,Nc1c(CC(=O)O)cccc1C(=O)c1ccc(Br)cc1 [Bromfenac],inactive: -0.421

# Looked up one by one from the list above:
row,SMILES,Z-score
1,N[C@H](C(=O)O)[C@@H]1CC(Cl)=NO1 [Acivicin],inactive: -0.59
20,Cc1ccc(-n2sc(=O)n(Cc3ccc(F)cc3)c2=O)cc1,inactive: 0.706
17,CCCCCNC(=N)N/N=C/c1c[nH]c2ccc(OC)cc12 [Tegaserod maleate],inactive: -0.703
19,Cc1cc(Cl)ccc1OCCCC(=O)NO [Droxinostat],inactive: -1.59
18,O=C(NCCN1CCOCC1)c1ccc(Cl)cc1 [Moclobemide],inactive: -0.282
2,C[C@H](Cn1cnc2c(N)ncnc21)OCP(=O)(O)O [Tenofovir],inactive: -0.36

# Later entries.

row,SMILES,Z-score
1,OCCN1CCN(CCCN2c3ccccc3C=Cc3ccccc32)CC1 [Opipramol dihydrochloride],inactive: 0.454
2,O=C(O)C=C1CCCc2ccccc2C1O (centres undefined),inactive: -1.17
3,CN1C(=O)OC(C)(C)C1=O [Trimethadione],inactive: 0.621
4,CC(=O)CCCCn1c(=O)c2c(ncn2C)n(C)c1=O [Pentoxifylline],inactive: -0.519
5,COc1cc2c(cc1OCCCN1CCCC1)N=C(N)C21CCC1,inactive: -1.26
6,CN(C/C=C/c1ccccc1)Cc1cccc2ccccc12 [Naftifine·HCl],inactive: -0.663
7,O=c1c(-c2ccc(O)cc2)coc2cc(O)ccc12 [Daidzein],inactive: -0.688
8,CC1(C)CC[C@]2(C(=O)O)CC[C@]3(C)C(=CC[C@@H]4[C@@]5(C)CC[C@H](O)C(C)(C)[C@@H]5CC[C@]43C)[C@@H]2C1 [Oleanolic acid],inactive: 0.0921
9,C[C@H]1O[C@@H](n2cc(F)c(=O)[nH]c2=O)[C@H](O)[C@@H]1O [5-fluoro-5'- deoxyuridine],inactive: -0.167
10,C[n+]1cccc(C(N)=O)c1 [1-  Methylnicotinamide chloride],inactive: -0.84
11,Clc1ccc(C(c2ccc(Cl)cc2)[n+]2ccn(CC(OCc3ccc(Cl)cc3Cl)c3ccc(Cl)cc3Cl)c2)cc1 (centres undefined) [Calmidazolium chloride],inactive: -0.196
12,N[C@@H](Cc1cc(CP(=O)(O)O)cc(-c2ccccc2Cl)c1)C(=O)O [SDZ 220-581  hydrochloride],inactive: 0.272
13,Cc1cc(C)cc(OCC2CNC(=O)O2)c1 (centres undefined) [Metaxalone],inactive: 0.0605
14,CC(=O)O[C@H]1C[C@@H]2CC[C@@H]3[C@H](CC[C@@]4(C)[C@H]3C[C@H]([N+]3(C)CCCCC3)[C@@H]4OC(C)=O)[C@@]2(C)C[C@@H]1N1CCCCC1 [Vecuronium Bromide],inactive: 0.194
15,O=C(O)CCNc1cc(N2CCc3ccccc3CC2)nc(-c2cccnc2)n1,active: -2.09
16,CCCCCCCC/C=C\CCCCCCCC(=O)NCCO [N-Oleoyl ethanolamine],inactive: 0.827
17,C[C@@H](O)[C@H]1C(=O)N2C(C(=O)O)=C(S[C@@H]3CN[C@H](C(=O)N(C)C)C3)[C@H](C)[C@H]12 [Meropenem],inactive: 0.614
18,C=C1CCN([C@H](C)[C@](O)(Cn2cncn2)c2ccc(F)cc2F)CC1 [Efinaconazole],inactive: -0.195
19,CCN(CC)C(=O)/C(C#N)=C/c1cc(O)c(O)c([N+](=O)[O-])c1 [Entacapone],inactive: -0.521
20,C[C@]12C=CC(=O)C=C1CC[C@H]1[C@@H]3C[C@@H](O)[C@](O)(C(=O)CO)[C@@]3(C)C[C@H](O)[C@@]12F [Triamcinolone],inactive: -1.09
21,CC1(C)O[C@@H]2C[C@H]3[C@@H]4CCC5=CC(=O)CC[C@]5(C)[C@@]4(F)[C@@H](O)C[C@]3(C)[C@]2(C(=O)CCl)O1 [Halcinonide],inactive: -0.983
22,CNCCCC12CCC(c3ccccc31)c1ccccc12 [Maprotiline hydrochloride],inactive: 0.672
23,CNCCCC12CCC(c3ccccc31)c1ccccc12 [Maprotiline·HCl],inactive: 0.664
